In PubChem BioAssay AID248 (DTP/NCI, 2004):
The list does not hold the whole screen: it gathers tests that were run many times, whatever their T/C, doses with no T/C, and many T/C values between a quarter and a half above the control. Further doses and runs are listed elsewhere. T/C: endpoint of the treated group in % of that of the vehicle group. Some entries give survivors of the animals treated and no T/C: the source holds a T/C of zero for them, seemingly a mark for toxic or unscored doses. Some survivor counts are full or nearly so, which does not show that the dose was tolerated: survival well below the control is almost never listed, so the zero probably covers shortened survival too. Counts of survivors are from the toxicity check (mostly the fifth day) where no day follows; animals may have died later. Schedule codes are those of the source, read here as Q, the interval in days (D) or hours (H), X, the number of doses. Some doses were run more than once; the values are given in rising order. Where survival is the endpoint, the PubChem record calls one and a half times the control and up active, and a quarter to a half above the control has no call in these data; cut-offs in other NCI protocols can differ. Some T/C values carry the count of animals alive at the toxicity check (mostly the fifth day); where none is given, no animal had died by that day. Marks such as (2×) say how often a value occurs here. Some schedule codes hold Z or #, which are not explained here.

System: L1210 leukemia ip in BDF1 mice, survival T/C
Experiment: NCI In Vivo Anticancer Drug Screen. Data for tumor model L1210 Leukemia (intraperitoneal) in B6D2F1 (BDF1) mice
Conditions: T/C endpoint: mean survival time, higher T/C = longer survival
[1] = dose: 50.0 mg/kg/injection, schedule: Q01DX009 (ip), vehicle: saline with Tween-80
[2] = dose: 100.0 mg/kg/injection, schedule: Q01DX009 (ip), vehicle: saline
[3] = dose: 200.0 mg/kg/injection, schedule: Q01DX009 (ip), vehicle: Klucel (hydroxypropylcellulose) (HPC)
[4] = dose: 400.0 mg/kg/injection, schedule: Q04DX003 (ip), vehicle: Klucel (hydroxypropylcellulose) (HPC)
[5] = dose: 6.25 mg/kg/injection, schedule: Q04DX002 (ip), vehicle: saline with Tween-80
[6] = dose: 25.0 mg/kg/injection, schedule: Q04DX002 (ip), vehicle: saline with Tween-80
[7] = dose: 400.0 mg/kg/injection, schedule: Q04DX003 (ip), vehicle: saline

Question: Which survivor count [1] does the source give for `CCCC[P+](CCCC)(CCCC)C(C)C` here?
Answer: 2 of 6

Question: And the survivor count (dose: 50.0 mg/kg/injection, schedule: Q01DX009 (ip), vehicle: saline)?
Answer: 1 of 6

Question: And the survivor count [2]?
Answer: 0 of 6

Question: What about the survivor count (dose: 100.0 mg/kg/injection, schedule: Q04DX003 (ip), vehicle: saline with Tween-80) of the same compound?
Answer: 1 of 6 and 2 of 6

Question: And the survivor count (dose: 200.0 mg/kg/injection, schedule: Q01DX009 (ip), vehicle: saline)?
Answer: 0 of 6

Question: And the survivor count (dose: 200.0 mg/kg/injection, schedule: Q04DX003 (ip), vehicle: saline with Tween-80)?
Answer: 0 of 6

Question: And the survivor count (dose: 400.0 mg/kg/injection, schedule: Q04DX003 (ip), vehicle: saline with Tween-80)?
Answer: 0 of 6

Question: Which results are given for `Cc1ccc(NC(=S)NN)cc1C`?
Answer: survivor count [3]: 4 of 6; survivor count [4]: 5 of 6

Question: Which T/C (dose: 20.0 mg/kg/injection, schedule: Q01DX Z (ip), vehicle: carboxymethylcellulose (CMC)) does the source give for `Nc1nc(SCc2ccccc2)c2ncn(CCCl)c2n1` here?
Answer: 142 % of control

Question: What about the T/C (dose: 45.0 mg/kg/injection, schedule: Q01DX Z (ip), vehicle: carboxymethylcellulose (CMC)) of the same compound?
Answer: 146 % of control

Question: What about the T/C (dose: 160.0 mg/kg/injection, schedule: Q01DX001 (ip), vehicle: carboxymethylcellulose (CMC)) of the same compound?
Answer: 125 % of control

Question: What does the source list for `O=C(CNC(=O)c1ccc(C(=O)NCC(=O)Nc2ccc(C3=NCCCN3)cc2)cc1)Nc1ccc(C2=NCCCN2)cc1`?
Answer: T/C (dose: 5.0 mg/kg/injection, schedule: Q01DX009 (ip), vehicle: saline): 133 % of control; T/C (dose: 5.0 mg/kg/injection, schedule: Q01DX015 (ip), vehicle: methylcellulose (MC)): 149 % of control; T/C (dose: 10.0 mg/kg/injection, schedule: Q01DX015 (ip), vehicle: methylcellulose (MC)): 129 % of control; T/C (dose: 20.0 mg/kg/injection, schedule: Q01DX009 (ip), vehicle: saline): 140 % of control; survivor count (dose: 61.0 mg/kg/injection, schedule: Q01DX015 (ip), vehicle: methylcellulose (MC)): 0 of 6; survivor count (dose: 100.0 mg/kg/injection, schedule: Q01DX001 (ip), vehicle: methylcellulose (MC)): 2 of 6; survivor count (dose: 123.0 mg/kg/injection, schedule: Q01DX015 (ip), vehicle: methylcellulose (MC)): 0 of 6; survivor count (dose: 200.0 mg/kg/injection, schedule: Q01DX001 (ip), vehicle: methylcellulose (MC)): 0 of 6; survivor count (dose: 246.0 mg/kg/injection, schedule: Q01DX015 (ip), vehicle: methylcellulose (MC)): 0 of 6

Question: Which survivor count (dose: 100.0 mg/kg/injection, schedule: Q01DX009 (ip), vehicle: Klucel (hydroxypropylcellulose) (HPC)) does the source give for `C[N+](C)(C)C(=Nc1ccccc1)c1ccccc1` here?
Answer: 2 of 6

Question: What about the survivor count [3] of the same compound?
Answer: 0 of 6

Question: And the survivor count (dose: 200.0 mg/kg/injection, schedule: Q04DX003 (ip), vehicle: Klucel (hydroxypropylcellulose) (HPC))?
Answer: 0 of 6

Question: And the survivor count [4]?
Answer: 0 of 6

Question: `COc1ccc(/C=C2/CSC/C(=C/c3ccc(OC)c(OC)c3)C2=O)cc1OC` was tested. Which survivor count [2] did it give?
Answer: 6 of 6

Question: What about the survivor count (dose: 400.0 mg/kg/injection, schedule: Q01DX009 (ip), vehicle: saline) of the same compound?
Answer: 6 of 6

Question: For `N#CS/C=C\C(=O)O`, which survivor count (dose: 6.25 mg/kg/injection, schedule: Q01DX001 (ip), vehicle: saline with Tween-80) is on record?
Answer: 6 of 6

Question: What about the T/C [5] of the same compound?
Answer: 104, 105, 112, 114 % of control

Question: And the survivor count [5]?
Answer: 3 of 3

Question: And the T/C (dose: 12.5 mg/kg/injection, schedule: Q04DX002 (ip), vehicle: saline with Tween-80)?
Answer: 93, 103, 106, 125, 127 % of control [2 of 3 alive]

Question: What about the survivor count (dose: 25.0 mg/kg/injection, schedule: Q01DX001 (ip), vehicle: saline with Tween-80) of the same compound?
Answer: 6 of 6

Question: And the T/C [6]?
Answer: 98, 100, 101 [2 of 3 alive] (2×), 103, 129 % of control

Question: What about the survivor count [6] of the same compound?
Answer: 3 of 3

Question: What about the survivor count (dose: 50.0 mg/kg/injection, schedule: Q01DX001 (ip), vehicle: saline with Tween-80) of the same compound?
Answer: 1 of 6

Question: What about the survivor count [1] of the same compound?
Answer: 0 of 10

Question: What about the survivor count (dose: 50.0 mg/kg/injection, schedule: Q04DX002 (ip), vehicle: saline with Tween-80) of the same compound?
Answer: 0 of 3, 0 of 6, 1 of 6, 1 of 3

Question: What about the survivor count (dose: 100.0 mg/kg/injection, schedule: Q04DX002 (ip), vehicle: Klucel (hydroxypropylcellulose) (HPC)) of the same compound?
Answer: 0 of 3

Question: What about the survivor count (dose: 100.0 mg/kg/injection, schedule: Q04DX002 (ip), vehicle: saline with Tween-80) of the same compound?
Answer: 0 of 3, 0 of 6, 1 of 6

Question: What about the survivor count (dose: 200.0 mg/kg/injection, schedule: Q04DX002 (ip), vehicle: Klucel (hydroxypropylcellulose) (HPC)) of the same compound?
Answer: 0 of 3

Question: And the survivor count (dose: 400.0 mg/kg/injection, schedule: Q04DX002 (ip), vehicle: Klucel (hydroxypropylcellulose) (HPC))?
Answer: 0 of 3

Question: `CN1CSCC1C(=O)O` (stereo unspecified) was tested. Which survivor count [7] did it give?
Answer: 5 of 6

Question: How did the survivor count (dose: 100.0 mg/kg/injection, schedule: Q04DX003 (ip), vehicle: saline) turn out when `C[N+]1=C2CCCCC2=C(N)CC1` was run?
Answer: 0 of 6

Question: And the survivor count (dose: 200.0 mg/kg/injection, schedule: Q04DX003 (ip), vehicle: saline)?
Answer: 0 of 6

Question: What about the survivor count [7] of the same compound?
Answer: 0 of 6

Question: How did the survivor count (dose: 400.0 mg/kg/injection, schedule: Q01DX009 (ip), vehicle: saline with Tween-80) turn out when `O=C(CCCCl)CC(O)(C(F)(F)F)C(F)(F)F` was run?
Answer: 3 of 6

Question: What does the source list for `CC1CN1CCCNC(=O)C(=O)NCCCN1CC1C` (stereo unspecified)?
Answer: T/C (dose: 25.0 mg/kg/injection, schedule: Q01DX001 (ip), vehicle: saline): 127 % of control; T/C (dose: 25.0 mg/kg/injection, schedule: Q04DX003 (ip), vehicle: saline): 139 % of control; T/C (dose: 50.0 mg/kg/injection, schedule: Q01DX001 (ip), vehicle: saline): 134 % of control; T/C (dose: 100.0 mg/kg/injection, schedule: Q01DX001 (ip), vehicle: saline): 132 % of control [5 of 6 alive]

Question: Which survivor count (dose: 100.0 mg/kg/injection, schedule: Q04DX003 (ip), vehicle: alcohol) does the source give for `O=C1NC2CC3CC(C2)CC1C3` here?
Answer: 0 of 6

Question: And the survivor count (dose: 200.0 mg/kg/injection, schedule: Q04DX003 (ip), vehicle: alcohol)?
Answer: 0 of 6

Question: What about the survivor count (dose: 400.0 mg/kg/injection, schedule: Q04DX003 (ip), vehicle: alcohol) of the same compound?
Answer: 0 of 6

Question: With `CSc1nnc([N+](=O)[O-])s1` as the compound, how does the survivor count (dose: 25.0 mg/kg/injection, schedule: Q01DX009 (ip), vehicle: Klucel (hydroxypropylcellulose) (HPC)) read?
Answer: 5 of 6

Question: For `CC1CCN1c1ccccc1` (stereo unspecified), which survivor count (dose: 200.0 mg/kg/injection, schedule: Q04DX003 (ip), vehicle: acetone) is on record?
Answer: 6 of 6

Question: And the survivor count (dose: 400.0 mg/kg/injection, schedule: Q04DX003 (ip), vehicle: acetone)?
Answer: 1 of 6
